No constants are given. Whether binding was seen depends on the method and setting. Binding seen in cells or lysates may run through a third protein. Some binding calls cover weakened binding; strength is not graded here. For part of these data: Where a sequence is shown, tags or fusion partners need not be part of it.
Tests used:
[1] = biological target: GFP-MuRF1 (human MuRF1 fused with a GFP tag at the N-terminus), stably expressed in L6 myotubes (human) (UniProt Q969Q1); assay: co-IP; GFP pulldown with GFP-Trap agarose beads from total lysates (1 mg) of L6 myotubes stably expressing GFP-MuRF1 or GFP-empty; overnight at 4°C in sucrose lysis buffer (1% Triton X-100); immunoblot for TRIM72
[2] = biological target: GFP-MuRF1 knock-in (endogenous MuRF1 with an N-terminal GFP tag) in C2C12 myotubes (mouse (endogenous in C2C12)) (UniProt Q38HM4); assay: co-IP; GFP pulldown with GFP-Trap agarose beads, or beads bound with IgG as a control, from total lysates (1 mg) of GFP-MuRF1 knock-in C2C12 myotubes; overnight at 4°C in sucrose lysis buffer (1% Triton X-100); immunoblot for TRIM72
[3] = biological target: GFP-MuRF1, transiently expressed in HEK293 cells (human) (UniProt Q969Q1); assay: co-IP; GFP pulldown with GFP-Trap agarose beads from total lysates (0.5 mg) of HEK293 cells co-transfected for 48 h with FLAG-TRIM72 and GFP-MuRF1 or GFP-empty; immunoblot with Flag antibody; one experiment

Protein sequences, listed by entry. Tags and fused reporters are not part of them.
UniProt Q969Q1: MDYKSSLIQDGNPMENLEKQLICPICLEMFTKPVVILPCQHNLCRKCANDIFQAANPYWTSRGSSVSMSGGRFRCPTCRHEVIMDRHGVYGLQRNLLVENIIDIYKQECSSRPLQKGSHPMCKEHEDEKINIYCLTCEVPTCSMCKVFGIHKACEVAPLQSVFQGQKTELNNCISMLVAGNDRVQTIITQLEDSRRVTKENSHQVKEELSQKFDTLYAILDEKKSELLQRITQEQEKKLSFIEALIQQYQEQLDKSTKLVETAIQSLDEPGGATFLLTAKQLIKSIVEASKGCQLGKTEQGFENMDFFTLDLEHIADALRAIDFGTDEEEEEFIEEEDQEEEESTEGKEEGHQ
UniProt Q38HM4: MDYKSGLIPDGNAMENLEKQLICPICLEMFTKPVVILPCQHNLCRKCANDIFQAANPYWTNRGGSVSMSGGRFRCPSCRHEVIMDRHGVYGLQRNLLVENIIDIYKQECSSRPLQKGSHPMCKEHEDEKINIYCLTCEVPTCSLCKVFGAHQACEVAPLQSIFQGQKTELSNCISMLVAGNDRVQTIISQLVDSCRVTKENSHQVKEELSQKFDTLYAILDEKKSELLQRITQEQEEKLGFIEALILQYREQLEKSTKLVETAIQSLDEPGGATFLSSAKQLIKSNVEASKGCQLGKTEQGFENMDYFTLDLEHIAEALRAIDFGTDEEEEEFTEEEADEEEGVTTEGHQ

B1: TRIM72 (tripartite motif-containing protein 72), endogenous in L6 myotubes (protein, UniProt A0JPQ4 1-477)
chain: MSTAPGLLRQELSCPLCLQLFDAPVTAECGHSFCRACLIRVAGEPADDGTVACPCCQASTRPQALSTNLQLARLVEGLAQVPQGHCEEHLDPLSIYCEQDRTLVCGVCASLGSHRGHRLLPAAEAHARLKTQLPQQKAQLQEACMRKEKSVAVLEHQLVEVEETVRQFRGAVGEQLGKMRMFLAALESSLDREAERVRGEAGVALRRELSSLNSYLEQLRQMEKVLEEVADKPQTEFLMKFCLVTSRLQKILSESPPPARLDIQLPVISDDFKFQVWKKMFRALMPELEELTFDPSSAHPSLVVSASGRRVECSEQKAPPAGEDTCQFDKTVAVVAKQLLSQGEHYWEVEVGDKPRWALGVMAADASRRGRLHAVPSQGLWLLGLRDGKILEAHVEAKEPRALRTPERPPARIGLYLSFADGVLTFYDASNTDALTPLFSFHERLPGPVYPMFDVCWHDKGKNSQPLLLVGPDSEQA
[1]
  binding: binds

B2: TRIM72 (tripartite motif-containing protein 72), endogenous in C2C12 myotubes (protein, UniProt Q1XH17 1-477)
chain: MSAAPGLLRQELSCPLCLQLFDAPVTAECGHSFCRACLIRVAGEPAADGTVACPCCQAPTRPQALSTNLQLSRLVEGLAQVPQGHCEEHLDPLSIYCEQDRTLVCGVCASLGSHRGHRLLPAAEAQARLKTQLPQQKMQLQEACMRKEKTVAVLEHQLVEVEETVRQFRGAVGEQLGKMRMFLAALESSLDREAERVRGDAGVALRRELSSLNSYLEQLRQMEKVLEEVADKPQTEFLMKFCLVTSRLQKILSESPPPARLDIQLPVISDDFKFQVWKKMFRALMPALEELTFDPSSAHPSLVVSSSGRRVECSDQKAPPAGEDTRQFDKAVAVVAQQLLSQGEHYWEVEVGDKPRWALGVMAADASRRGRLHAVPSQGLWLLGLRDGKILEAHVEAKEPRALRTPERPPARIGLYLSFADGVLAFYDASNPDVLTPIFSFHERLPGPVYPIFDVCWHDKGKNAQPLLLVGPEQEQA
[2]
  binding: binds

B3: FLAG-TRIM72, transiently expressed in HEK293 cells (protein, UniProt Q6ZMU5 1-477)
chain: MSAAPGLLHQELSCPLCLQLFDAPVTAECGHSFCRACLGRVAGEPAADGTVLCPCCQAPTRPQALSTNLQLARLVEGLAQVPQGHCEEHLDPLSIYCEQDRALVCGVCASLGSHRGHRLLPAAEAHARLKTQLPQQKLQLQEACMRKEKSVAVLEHQLVEVEETVRQFRGAVGEQLGKMRVFLAALEGSLDREAERVRGEAGVALRRELGSLNSYLEQLRQMEKVLEEVADKPQTEFLMKYCLVTSRLQKILAESPPPARLDIQLPIISDDFKFQVWRKMFRALMPALEELTFDPSSAHPSLVVSSSGRRVECSEQKAPPAGEDPRQFDKAVAVVAHQQLSEGEHYWEVDVGDKPRWALGVIAAEAPRRGRLHAVPSQGLWLLGLREGKILEAHVEAKEPRALRSPERRPTRIGLYLSFGDGVLSFYDASDADALVPLFAFHERLPRPVYPFFDVCWHDKGKNAQPLLLVGPEGAEA
[3]
  binding: binds

Reference: paper PMC12464895
